Reference: publication doi:10.1101/2024.04.18.590116 (bioRxiv, 2024)
Positions count from the first letter of the chain named. Numbers in names are those of the source. Results are given in words; binding and its absence hold for the method and conditions named. For part of these data: Binding seen in cells or lysates may run through a third protein. For part of these data: Binding can be weak; no strength is given. Tags and fused reporters may be left off the sequences shown.

T1: GST-KRP3 (rice (Oryza sativa)) (UniProt Q2R185)
T1 sequence: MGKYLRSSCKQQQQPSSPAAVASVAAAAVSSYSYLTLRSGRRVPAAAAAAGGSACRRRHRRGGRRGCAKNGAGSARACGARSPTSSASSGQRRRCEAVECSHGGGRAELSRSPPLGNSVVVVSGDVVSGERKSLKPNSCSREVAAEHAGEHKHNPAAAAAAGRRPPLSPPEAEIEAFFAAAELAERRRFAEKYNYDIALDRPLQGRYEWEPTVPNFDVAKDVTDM

T2: KRP3 fused to the GAL4 DNA binding domain (rice (Oryza sativa)) (UniProt Q2R185)
T2 sequence: T1 sequence

B1: KRP3^EE (KRP3^S17E,S82E, phospho-mimetic) fused to a YFP fragment (protein, UniProt Q2R185 1-225)
chain: T1 sequence with S17E, S82E
B2: KRP3^AA (KRP3^S17A,S82A, phospho-dead) fused to a YFP fragment (protein, UniProt Q2R185 1-225)
chain: T1 sequence with S17A, S82A

Experiments:
[1] = biological target: T1, GST-KRP3 (rice (Oryza sativa)); experiment: pull-down
[2] = biological target: T2, KRP3 fused to the GAL4 DNA binding domain (rice (Oryza sativa)); experiment: two-hybrid
[3] = biological target: CycD2 fused to a YFP fragment (pSITE-cEYFP-N1) (rice (Oryza sativa)); experiment: split reporter

Row | Molecule | binding [1] | binding [2] | binding [3]
1 | 6xHis-MPK4 (rice) (enzyme) | no binding |  | 
2 | 6xHis-MPK6 (rice) (enzyme) | no binding |  | 
3 | MPK4 fused to the GAL4 activation domain (rice) (enzyme) |  | no binding | 
4 | MPK6 fused to the GAL4 activation domain (rice) (enzyme) |  | no binding | 
5 | B1 |  |  | binds
6 | B2 |  |  | binds
